# PubChem BioAssay AID504444 (National Center for Advancing Translational Sciences (NCATS), 2011)
# Several values for one entry are separate records, joined by “and”; a condition that tells them apart may be missing. Equal entries are not always repeated. About 7,500 (2.1%) of roughly 360,000 compounds were called active. The shares of active, inactive and inconclusive entries below differ from those in the screen. Calls come from the whole dose curve; as a rule, active = well fitted inhibition curve with a large enough effect; inconclusive = small, poorly fitted or top-dose-only effect, or effect the other way; inactive = flat fitted curve, though single readings scatter. Potencies beside an inconclusive call are fits to weak or partial responses and may not hold up.
# Experiment: Nrf2 qHTS screen for inhibitors; note: nearly all actives have a fitted effect of over 60% in size
# Conditions: A549 ARE-Fluc reporter, luciferase luminescence, 18-24 h; series mostly up to 46 µM
# In short: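 In this cell-based qHTS, ARE-driven firefly luciferase in A549 cells reports Nrf2 activity; the luminescent signal after BugLite lysis is the measured value, with a prior CellTiter-Fluor read for cell health.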
# Potency is the fitted concentration of half-maximal effect.
row,SMILES,Potency
1,Cc1ccc(OCC(=O)N/N=C/c2ccc([N+](=O)[O-])o2)cc1,active: 20.6 µM
2,Cc1ccc(N2C(=O)S/C(=C/c3cn(C)c4ccccc34)C2=O)cc1,"inconclusive: 4.61 µM [activator, single point]"
3,Cc1cc(NC(=O)c2cccc(S(=O)(=O)N3c4ccccc4CC3C)c2)no1 (stereo not drawn),"inconclusive: 29.1 µM [falling, single point]"
4,COC(=O)c1c(NC(=O)CCCOc2ccc(C)cc2)sc2c1C(C(=O)OC)CC2 (stereo not drawn),"inconclusive: 16.4 µM [falling, partial curve, poor fit]"
5,CCc1cccc(CC)c1NC(=O)c1cc(S(=O)(=O)N2CCc3ccccc32)cn1C,active: 23.1 µM
6,Cn1c(=O)n(Cc2ccc(Br)cc2)c2ccccc21,"inconclusive: 20.6 µM [falling, partial curve, poor fit]"
7,CCc1ccc(C(=O)NNC(=O)CC2OC(=O)c3ccccc32)cc1 (stereo not drawn),"inconclusive: 5.8 µM [activator, full curve]"
8,O=C(c1ccc(N2CCN(C(=O)c3ccccc3Br)CC2)cc1)c1cccc(F)c1,active: 20.6 µM
9,COc1ccc(N2C(=O)CC(Cc3ccc(Br)cc3)C2=O)cc1 (stereo not drawn),"inconclusive: 14.6 µM [falling, partial curve]"
10,Cc1nc2ccn(Cc3ccco3)c(=O)c2cc1C(=O)N1CCN(c2ccccc2F)CC1,inactive
11,COc1ccc(NC(=O)Cc2coc3cc(C)cc(C)c23)c(OC)c1,"inconclusive: 25.9 µM [falling, single point]"
12,O=C(Nc1cccc(-c2csc(Nc3ccc(Cl)cc3)n2)c1)c1ccccc1,"inconclusive: 29.1 µM [falling, single point]"
13,CCc1cccc2c(C(=O)CSc3nncn3C)c[nH]c12,"inconclusive: 9.2 µM [activator, partial curve, poor fit]"
14,COc1ccc2c(c1)c1c(c(=O)n(Cc3ccccc3)c(=O)n1Cc1cc(C)ccc1C)n2C,"inconclusive: 0.146 µM [activator, full curve, poor fit]"
15,COc1cccc(OCc2nc3ccccc3n2CCOc2ccccc2)c1,"inconclusive: 29.1 µM [falling, single point]"
16,CCOc1ccc(C(=O)NCCc2cnc[nH]2)cc1,"inconclusive: 29.1 µM [activator, single point]"
17,CCn1c(SCC(=O)N2CCC(C)CC2)nc2c(c1=O)SCC2,"inconclusive: 29.1 µM [activator, partial curve, poor fit]"
18,CC(C)c1cc(C(=O)N/N=C/C(Br)=C/c2ccccc2)n[nH]1,"inconclusive: 18.4 µM [falling, partial curve, poor fit]"
19,COCCC1CCCCN1C(=O)c1ccc2nc(Cc3ccccc3F)oc2c1 (stereo not drawn),"inconclusive: 4.61 µM [activator, partial curve]"
20,NC(=S)NN=C1Cc2cccc3cccc1c23,"inconclusive: 3.26 µM [activator, partial curve, poor fit]"
21,COc1cc(SC)ccc1C(=O)Nc1ccc(Br)cn1,"inconclusive: 29.1 µM [falling, single point]"

# Given tab-delimited: part of the list above.
row	SMILES	Potency
4	COC(=O)c1c(NC(=O)CCCOc2ccc(C)cc2)sc2c1C(C(=O)OC)CC2 (stereo not drawn)	inconclusive: 16.4 µM [falling, partial curve, poor fit]
5	CCc1cccc(CC)c1NC(=O)c1cc(S(=O)(=O)N2CCc3ccccc32)cn1C	active: 23.1 µM

# Following part:

row,SMILES,Potency
1,CCc1ccc(CN2CCN(C(=O)c3cccc(OC)c3OC)CC2)cc1,"inconclusive: 10 µM [falling, partial curve]"
2,CC1(C)c2ssc(=S)c2-c2ccccc2N1C(=O)CSC1=NCCS1,active: 14.6 µM
3,COc1ccc(CC2(c3ccccc3)NC(=O)NC2=O)cc1 (stereo not drawn),"inconclusive: 25.9 µM [falling, single point]"
4,CSc1ccccc1C(=O)C1CCCN(C(=O)c2ccc(N3CCOCC3)cc2)C1 (stereo not drawn),"inconclusive: 7.31 µM [activator, partial curve, poor fit]"
5,CCN1/C(=C2\OC(=S)N(C)C2=O)Sc2ccccc21,"inconclusive: 16.4 µM [activator, partial curve, poor fit]"
6,CCOC(=O)c1ccccc1NC(=O)c1cn(-c2ccc(C)c(C)c2)c(=O)c2ccccc12,"inconclusive: 23.1 µM [falling, partial curve, poor fit]"
7,Cc1ccc(NC(=O)n2ncc3c(C)cccc32)cc1F,"inconclusive: 0.82 µM [activator, full curve, poor fit]"
8,O=C(NC1CCCCCCC1O)c1ccccc1 (stereo not drawn),"inconclusive: 20.6 µM [activator, partial curve, poor fit]"
9,O=C(CN(c1ccc(Cl)cc1)S(=O)(=O)c1ccccc1)N1CCN(c2ccccc2)CC1,"inconclusive: 29.1 µM [falling, single point]"
10,CSc1ccccc1C(=O)OCC(=O)N1CCCCCC1,"inconclusive: 20.6 µM [activator, partial curve]"
11,COC(=O)c1ccc(-n2nc(C(F)(F)F)c3c2-c2ccoc2CC3)cc1,"inconclusive: 18.4 µM [falling, partial curve, poor fit]"
12,Oc1c(C2=NCCNC(C(F)(F)F)=C2)ccc2ccccc12,"inconclusive: 2.91 µM [activator, full curve]"
13,C=CCNC(=S)N1CCN(c2cccc(C(F)(F)F)c2)CC1,"inconclusive: 20.6 µM [falling, single point]"
14,Cc1c(OC(C)C(=O)NCc2ccccn2)ccc2c3c(c(=O)oc12)CCCC3 (stereo not drawn),"inconclusive: 16.4 µM [falling, single point]"
15,CC(=O)Cn1nnc2sc(-c3ccccc3)cc2c1=O,"inconclusive: 1.84 µM [activator, partial curve, poor fit] and inconclusive: 411 nM [activator, full curve]"
16,Cc1c(Cl)cccc1Nc1sc(C(=O)c2ccccc2)c(N)c1S(=O)(=O)c1ccccc1,"inconclusive: 8.2 µM [falling, partial curve, poor fit]"
17,CCCCCCNC(=O)CCNS(=O)(=O)c1ccc(C)cc1,inactive
18,O=C(O)c1ccc(N=NN2CCCCCC2)cc1,"inconclusive: 1.84 µM [activator, full curve, poor fit]"
19,CCOC(=O)N1CCc2c(sc3c2c(=O)n(Cc2ccccc2)c(=O)n3Cc2c(F)cccc2Cl)C1,"inconclusive: 6.51 µM [falling, single point]"
20,Fc1ccc2cnc(CCO[C@H]3CCCCO3)cc2c1,"inconclusive: 6.51 µM [activator, partial curve, poor fit]"
21,O=C1CC(c2nc3ccccc3n2Cc2c(F)cccc2Cl)CN1c1cccc(C(F)(F)F)c1 (stereo not drawn),inactive

row,SMILES,Potency
1,c1ccc(-c2nc(-c3nccc4ccccc34)oc2-c2ccccc2)cc1,"inconclusive: 32.6 µM [activator, single point]"
2,Cn1c(N=Cc2ccc([N+](=O)[O-])cc2)c(N)c(=O)n(C)c1=O,"inconclusive: 2.06 µM [falling, single point]"
3,O=C(CSC1=Nc2ccccc2C2CC=NN12)NCc1ccco1 (stereo not drawn),"inconclusive: 5.17 µM [activator, partial curve]"
4,Cc1ccc2nc(/C(C#N)=C/c3cn[nH]c3-c3ccc(F)cc3)[nH]c2c1,"inconclusive: 23.1 µM [falling, single point]"
5,CS(=O)c1ccccc1-c1nc(-c2ccc(Cl)cc2)no1 (stereo not drawn),"inconclusive: 10.3 µM [activator, partial curve]"
6,C#CCN1C=CC(=O)[C@@H](OC(=O)Nc2ccccc2Br)[C@H]1c1ccccc1Br,"inconclusive: 32.6 µM [falling, single point]"
7,CCCCOc1cccc(C(=O)Nc2cc3nn(-c4ccc(F)cc4)nc3cc2C)c1,"inconclusive: 18.4 µM [activator, partial curve]"
8,CC(C)(C)c1ccc(-c2noc(CCC(=O)Nc3cccnc3)n2)cc1,active: 0.259 µM
9,Clc1cccc(-c2cc3nc4c(c(N5CCOCC5)n3n2)CCCC4)c1,"inconclusive: 29.1 µM [falling, single point]"
10,COc1ccc(N2CCN(C(=O)c3ccc4c(=O)n(CC5CCCO5)c(=O)[nH]c4c3)CC2)cc1 (stereo not drawn),"inconclusive: 32.6 µM [falling, partial curve, poor fit]"
11,CCOC(=O)C1=C(C)N(c2ccc(OC)cc2)C(=O)/C1=C\c1cccs1,inactive
12,COc1ccc(Nc2cc(C)nc(NCc3ccccc3)n2)cc1,"inconclusive: 16.4 µM [falling, partial curve]"
13,COc1ccc(NC(=O)CN2CCN(c3c(C)cccc3C)CC2)cc1,"inconclusive: 20.6 µM [falling, partial curve, poor fit]"
14,O=C(Nc1cccc([N+](=O)[O-])c1)Nc1ccc2c(c1)OCCO2,"inconclusive: 0.116 µM [activator, full curve, poor fit]"
15,CC(=O)Nc1cccc(/C(C)=N/NC(=O)c2ccc3c(c2)OCO3)c1,"inconclusive: 3.26 µM [activator, single point]"
16,COc1ccc(OC2C(=O)N(Cc3ccc4c(c3)OCO4)C2c2cccs2)cc1 (stereo not drawn),active: 13 µM
17,CCN1C(=O)[C@H]2[C@@H](c3ccc(-c4ccccc4)cc3)N[C@@](C)(C(=O)OC)[C@H]2C1=O,inactive
18,O=C(COc1coc(CN2CCc3ccccc3C2)cc1=O)Nc1ccccc1F,"inconclusive: 29.1 µM [falling, single point]"
19,Cc1ccccc1NC(=O)c1sc2nc(-c3ccncc3)ccc2c1N,active: 25.9 µM
20,O=c1c2sc(-c3ccccc3)cc2nc2n1CCCCC2,"inconclusive: 0.82 µM [activator, full curve, poor fit]"
21,COc1ccc(NC(=O)CSc2nc3c(c(=O)n(C)c(=O)n3C)n2C)c(OC)c1,"inconclusive: 20.6 µM [falling, single point]"
